The target of this assay is Protein arginine methyltransferase 5 (human (endogenous in CHLA20 and NGP)) (UniProt O14744). Kind of assay: co-IP.

The chains behind the UniProt entries cited, without tags or fusion partners.
UniProt O14744: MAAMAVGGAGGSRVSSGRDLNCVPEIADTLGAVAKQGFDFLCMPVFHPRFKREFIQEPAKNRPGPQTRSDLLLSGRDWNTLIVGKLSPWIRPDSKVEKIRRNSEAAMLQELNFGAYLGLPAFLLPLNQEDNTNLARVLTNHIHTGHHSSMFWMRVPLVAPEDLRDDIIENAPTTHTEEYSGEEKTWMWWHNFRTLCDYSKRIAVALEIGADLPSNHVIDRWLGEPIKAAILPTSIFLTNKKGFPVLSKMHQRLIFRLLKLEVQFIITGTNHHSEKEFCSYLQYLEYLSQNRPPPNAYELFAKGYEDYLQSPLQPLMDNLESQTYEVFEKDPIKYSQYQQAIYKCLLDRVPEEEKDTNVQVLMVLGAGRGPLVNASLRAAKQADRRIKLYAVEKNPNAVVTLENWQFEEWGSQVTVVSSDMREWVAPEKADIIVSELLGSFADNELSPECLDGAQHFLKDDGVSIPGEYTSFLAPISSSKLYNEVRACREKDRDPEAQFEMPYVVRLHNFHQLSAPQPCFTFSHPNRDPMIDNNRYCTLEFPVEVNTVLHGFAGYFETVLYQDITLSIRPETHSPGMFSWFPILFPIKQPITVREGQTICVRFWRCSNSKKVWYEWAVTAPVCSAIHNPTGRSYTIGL
UniProt P31749: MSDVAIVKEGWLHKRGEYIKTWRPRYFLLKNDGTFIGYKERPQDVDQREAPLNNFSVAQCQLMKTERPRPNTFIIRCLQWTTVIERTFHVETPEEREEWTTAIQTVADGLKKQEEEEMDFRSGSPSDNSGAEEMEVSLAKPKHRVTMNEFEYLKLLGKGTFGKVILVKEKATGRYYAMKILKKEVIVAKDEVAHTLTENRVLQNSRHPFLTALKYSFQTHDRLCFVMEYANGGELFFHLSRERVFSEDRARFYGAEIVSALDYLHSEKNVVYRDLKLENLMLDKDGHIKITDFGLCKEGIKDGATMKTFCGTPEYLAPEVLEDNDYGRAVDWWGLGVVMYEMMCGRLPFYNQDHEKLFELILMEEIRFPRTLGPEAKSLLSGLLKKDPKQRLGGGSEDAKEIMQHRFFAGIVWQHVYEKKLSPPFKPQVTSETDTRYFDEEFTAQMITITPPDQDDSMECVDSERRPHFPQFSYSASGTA

Results are given in words; binding and its absence hold for the method and conditions named. Binding seen in cells or lysates may run through a third protein. Some binding calls cover weakened binding; strength is not graded here.

The values below come from paper doi:10.1101/2020.08.12.246660.

Take AKT1 (from UniProt P31749 1-480): the binding result is “binds”.
